Measured values: US10041905B2, “Electrochemically active agents for pH modulation in biological buffers” (Robert Bosch GmbH, priority 2015, dated 2018)

Assay: Electrochemical modulation of pH at ITO working electrode, monitored by GFP fluorescence intensity
Type: physicochemical
Conditions: diluted phosphate buffer pH 7.4 with 0.1 M Na2SO4

Compound: Cc1cc(O)ccc1O [2-methyl-1,4-dihydroquinone]
- solution pH after current-driven oxidation (50 microamps for 30 second): 5.5
- time for pH to recover to neutral value after current was turned off: ≤ 50 seconds
